# According to patent publication EP0135429B1, “The synthesis of cyclopropane amino acids and peptides” (THE UNIVERSITY OF GEORGIA RESEARCH FOUNDATION, INC., priority 1983, dated 1992):
# Not every detail of the peptide structures is certain; ends, links or a residue may be inferred. Numbered stars: 1 amine (or outer) side, 2 acyl side, 3 side chain; on linkers, the order of the positions; unused ones are H or OH. Square brackets hold non-standard residues; d marks the D form. Peptide text beside a SMILES is read from it. X1 = O=C([C@@]1(N[*:1])C[C@H]1c1ccccc1)[*:2]
# Assay: analgetic activity (statement only)
smiles,measurement,value
"CC(C)C[C@H](NC(=O)[C@@]1(NC(=O)CNC(=O)[C@@H](C)NC(=O)[C@@H](N)Cc2ccc(O)cc2)C[C@H]1c1ccccc1)C(=O)O [Example XXXIV, Tyr-D-Ala-Gly-(1R)∇^EPhe-Leu] (H-Y[dA]G[X1]L-OH)",analgetic activity,active analgetic agent
